Reference: the supplement of paper PMC7238544
Counter-ions that a name gives are not always drawn. ± gives the standard deviation of the averaged measurements. This is one part of the list. The data scatter; read single values as rough.

Key:
[1] = test system: hAMSC donor 1; assay: Hoechst total cell count ratio vs vehicle control; higher = more cells (less toxicity)
[2] = test system: hAMSC donor 2; assay: as above
[3] = test system: hAMSC donor 1; assay: transgenic luciferase activity (RLU/mg protein) fold change vs vehicle control (ratio); higher = more transgene expression
[4] = test system: hAMSC donor 1; assay: transfection efficiency (EGFP+ cells / Hoechst count) fold change vs vehicle control (ratio); hAMSC are human adipose-derived mesenchymal stem cells given an EGFP-luciferase plasmid by lipofection; higher = enhanced transfection
[5] = test system: hAMSC donor 2; assay: as above
[6] = priming compound concentration 0.2 µM
[7] = priming compound concentration 1.7 µM
[8] = priming compound concentration 13 µM

| SMILES | Hoechst total cell count ratio [1, 6] | Hoechst total cell count ratio [1, 7] | Hoechst total cell count ratio [1, 8] | Hoechst total cell count ratio [2, 6] | Hoechst total cell count ratio [2, 7] | Hoechst total cell count ratio [2, 8] | transgenic luciferase activity [3, 6] | transfection efficiency [4, 6] | transfection efficiency [4, 7] | transfection efficiency [4, 8] | transfection efficiency [5, 6] | transfection efficiency [5, 7] | transfection efficiency [5, 8] | transgenic luciferase activity [3, 7] | transgenic luciferase activity [3, 8] |
| --- | --- | --- | --- | --- | --- | --- | --- | --- | --- | --- | --- | --- | --- | --- | --- |
| CC1=Nc2ccc(Cl)cc2S(=O)(=O)N1 [Diazoxide] | 1.33 ± 0.16 | 1.36 ± 0.15 | 1.03 ± 0.077 | 1.16 ± 0.052 | 0.998 ± 0.041 | 1.23 ± 0.28 | 0.933 ± 0.18 | 1.09 ± 0.16 | 0.811 ± 0.18 | 1.21 ± 0.35 | 1.02 ± 0.099 | 1.13 ± 0.056 | 0.851 ± 0.11 |  |  |
| NNC(=O)c1ccncc1 [Isoniazid] | 1.31 ± 0.075 | 1.13 ± 0.088 | 1.28 ± 0.09 | 1.03 ± 0.17 | 1.07 ± 0.035 | 0.959 ± 0.15 |  | 1.26 ± 0.3 | 0.913 ± 0.12 | 1.07 ± 0.48 | 1.19 ± 0.065 | 1.23 ± 0.069 | 1.19 ± 0.31 | 0.276 ± 0.091 |  |
| C=C1/C(=C\C=C2/CCC[C@]3(C)[C@@H]([C@H](C)/C=C/[C@@H](O)C4CC4)CC[C@@H]23)C[C@@H](O)C[C@@H]1O [Calcipotriol] | 1.52 ± 0.17 | 1.51 ± 0.16 | 1.41 ± 0.018 | 1.48 ± 0.14 | 1.19 ± 0.08 | 1.12 ± 0.29 |  | 0.959 ± 0.42 | 0.847 ± 0.17 | 0.899 ± 0.15 | 0.965 ± 0.087 | 1.27 ± 0.23 | 1.34 ± 0.35 |  | 2.02 ± 0.33 |
| CC[C@H]1OC(=O)[C@H](C)[C@@H](O[C@H]2C[C@@](C)(OC)[C@@H](O)[C@H](C)O2)[C@H](C)[C@@H](O[C@@H]2O[C@H](C)C[C@H](N(C)C)[C@H]2O)[C@](C)(OC)C[C@@H](C)C(=O)[C@H](C)[C@@H](O)[C@]1(C)O [Clarithromycin] | 1.26 ± 0.086 | 1.27 ± 0.12 | 1.18 ± 0.13 | 1.25 ± 0.2 | 0.874 ± 0.052 | 0.968 ± 0.2 | 0.965 ± 0.38 | 0.998 ± 0.35 | 1.02 ± 0.27 | 1.14 ± 0.053 | 0.829 ± 0.21 | 0.94 ± 0.069 | 0.865 ± 0.15 |  |  |
| C=CCc1ccc(O)c(-c2ccc(O)c(CC=C)c2)c1 [Honokiol] | 1.21 ± 0.12 | 1.08 ± 0.088 | 0.804 ± 0.082 | 0.738 ± 0.21 | 0.895 ± 0.058 | 0.508 ± 0.14 |  | 1.02 ± 0.23 | 1.23 ± 0.21 | 0.994 ± 0.23 | 1.52 ± 0.27 | 1.63 ± 0.36 | 1.31 ± 0.18 |  | 0.715 ± 0.64 |
| CNNCc1ccc(C(=O)NC(C)C)cc1 [Procarbazine hydrochloride] | 1.32 ± 0.18 | 1.16 ± 0.078 | 1.257 ± 0.0098 | 1.28 ± 0.037 | 1.28 ± 0.19 | 1.16 ± 0.086 |  | 1.34 ± 0.47 | 1.04 ± 0.16 | 0.862 ± 0.19 | 1.01 ± 0.18 | 1.08 ± 0.18 | 1.29 ± 0.24 |  | 0.636 ± 0.33 |
| COc1ccc(-c2oc3c(CC=C(C)C)c(O[C@@H]4O[C@H](CO)[C@@H](O)[C@H](O)[C@H]4O)cc(O)c3c(=O)c2O[C@@H]2O[C@@H](C)[C@H](O)[C@@H](O)[C@H]2O)cc1 [Icariin] | 1.4 ± 0.11 | 1.25 ± 0.031 | 1.23 ± 0.052 | 1.23 ± 0.22 | 1.13 ± 0.082 | 1.23 ± 0.12 |  | 0.964 ± 0.18 | 1.12 ± 0.063 | 1.19 ± 0.48 | 0.995 ± 0.18 | 1.23 ± 0.29 | 0.902 ± 0.077 |  | 0.779 ± 0.064 |
| COC(=O)C1=C(C)NC(C)=C(C(=O)OC)C1c1ccccc1[N+](=O)[O-] [Nifedipine] | 1.46 ± 0.12 | 1.45 ± 0.089 | 1.32 ± 0.078 | 0.963 ± 0.17 | 1.08 ± 0.14 | 1.25 ± 0.22 | 0.862 ± 0.41 | 0.842 ± 0.088 | 0.949 ± 0.12 | 0.887 ± 0.098 | 1.19 ± 0.23 | 1.24 ± 0.025 | 1.13 ± 0.36 |  |  |
| CO[C@@H]1[C@@H](O[C@@H]2O[C@H](C)[C@@H](O[C@H]3C[C@@](C)(O)[C@@H](OC(=O)CC(C)C)[C@H](C)O3)[C@H](N(C)C)[C@H]2O)[C@@H](CC=O)C[C@@H](C)[C@@H](O)/C=C/C=C/C[C@@H](C)OC(=O)C[C@H]1O [Kitasamycin] | 1.43 ± 0.16 | 1.23 ± 0.14 | 1.07 ± 0.037 | 0.85 ± 0.13 | 1 ± 0.096 | 1.02 ± 0.28 |  | 1.1 ± 0.049 | 0.791 ± 0.11 | 1.34 ± 0.38 | 1.01 ± 0.094 | 1.23 ± 0.12 | 1.13 ± 0.34 | 0.748 ± 0.75 |  |
| CN1CCc2cc(Cl)c(O)cc2[C@@H](c2ccccc2)C1 | 1.29 ± 0.31 | 1.03 ± 0.094 | 1.21 ± 0.06 | 1.21 ± 0.042 | 1.22 ± 0.028 | 1.21 ± 0.11 |  | 1.13 ± 0.26 | 1.24 ± 0.12 | 1.32 ± 0.31 | 1.05 ± 0.064 | 0.992 ± 0.11 | 1.22 ± 0.13 |  | 1.19 ± 0.84 |
| Clc1ccc(COC(Cn2ccnc2)c2ccc(Cl)cc2Cl)cc1 (stereo not given) [Econazole nitrate] | 1.66 ± 0.13 | 1.38 ± 0.18 | 1.4 ± 0.046 | 1.44 ± 0.39 | 1.33 ± 0.15 | 1.46 ± 0.085 |  | 1.2 ± 0.28 | 0.746 ± 0.094 | 0.967 ± 0.25 | 0.789 ± 0.16 | 0.691 ± 0.1 | 0.759 ± 0.044 | 0.758 ± 0.29 |  |
| COc1cc2nc(N(C)CCCNC(=O)C3CCCO3)nc(N)c2cc1OC (stereo not given) [Alfuzosin] | 1.33 ± 0.1 | 1.15 ± 0.12 | 1.17 ± 0.13 | 1.03 ± 0.13 | 1.17 ± 0.094 | 1.29 ± 0.14 |  | 1.06 ± 0.18 | 1.01 ± 0.059 | 1.22 ± 0.28 | 1.42 ± 0.31 | 1.33 ± 0.21 | 0.851 ± 0.14 |  | 1.16 ± 0.96 |
| O=C(c1ccc(F)cc1)C1CCN(CCn2c(=S)[nH]c3ccccc3c2=O)CC1 [Altanserin hydrochloride] | 1.27 ± 0.12 | 1.38 ± 0.079 | 1.14 ± 0.11 | 1.03 ± 0.034 | 1.22 ± 0.18 | 1.15 ± 0.18 | 0.996 ± 0.29 | 1.11 ± 0.13 | 1.13 ± 0.25 | 1.23 ± 0.63 | 1.2 ± 0.2 | 0.987 ± 0.31 | 1.1 ± 0.12 |  |  |
| Cc1c(OCC(F)(F)F)ccnc1C[S+]([O-])c1nc2ccccc2[nH]1 (stereo not given) [Lansoprazole] | 1.52 ± 0.24 | 1.54 ± 0.078 | 1.3 ± 0.18 | 1.14 ± 0.084 | 1.15 ± 0.25 | 1.28 ± 0.32 |  | 0.974 ± 0.2 | 0.894 ± 0.13 | 1.21 ± 0.2 | 1.04 ± 0.099 | 1.1 ± 0.16 | 1.25 ± 0.37 |  | 0.586 ± 0.45 |
| CCCSc1ccc2[nH]c(NC(=O)OC)nc2c1 [Albendazole] | 1.31 ± 0.21 | 1.09 ± 0.082 | 1.1 ± 0.025 | 0.992 ± 0.063 | 1.09 ± 0.3 | 0.559 ± 0.1 |  | 1.2 ± 0.3 | 1.23 ± 0.28 | 1.12 ± 0.43 | 1.29 ± 0.32 | 1.36 ± 0.075 | 1.36 ± 0.43 | 0.567 ± 0.11 |  |

An excerpt of these results, bar-delimited.
SMILES | Hoechst total cell count ratio [1, 6] | Hoechst total cell count ratio [1, 7] | Hoechst total cell count ratio [1, 8] | Hoechst total cell count ratio [2, 6] | Hoechst total cell count ratio [2, 7] | Hoechst total cell count ratio [2, 8] | transgenic luciferase activity [3, 6] | transfection efficiency [4, 6] | transfection efficiency [4, 7] | transfection efficiency [4, 8] | transfection efficiency [5, 6] | transfection efficiency [5, 7] | transfection efficiency [5, 8] | transgenic luciferase activity [3, 7] | transgenic luciferase activity [3, 8]
CO[C@@H]1[C@@H](O[C@@H]2O[C@H](C)[C@@H](O[C@H]3C[C@@](C)(O)[C@@H](OC(=O)CC(C)C)[C@H](C)O3)[C@H](N(C)C)[C@H]2O)[C@@H](CC=O)C[C@@H](C)[C@@H](O)/C=C/C=C/C[C@@H](C)OC(=O)C[C@H]1O [Kitasamycin] | 1.43 ± 0.16 | 1.23 ± 0.14 | 1.07 ± 0.037 | 0.85 ± 0.13 | 1 ± 0.096 | 1.02 ± 0.28 |  | 1.1 ± 0.049 | 0.791 ± 0.11 | 1.34 ± 0.38 | 1.01 ± 0.094 | 1.23 ± 0.12 | 1.13 ± 0.34 | 0.748 ± 0.75 | 
CN1CCc2cc(Cl)c(O)cc2[C@@H](c2ccccc2)C1 | 1.29 ± 0.31 | 1.03 ± 0.094 | 1.21 ± 0.06 | 1.21 ± 0.042 | 1.22 ± 0.028 | 1.21 ± 0.11 |  | 1.13 ± 0.26 | 1.24 ± 0.12 | 1.32 ± 0.31 | 1.05 ± 0.064 | 0.992 ± 0.11 | 1.22 ± 0.13 |  | 1.19 ± 0.84
